PubChem BioAssay AID540256 (National Center for Advancing Translational Sciences (NCATS), 2011)
In all, about 300,000 compounds went through this assay and about 3,700 (1.2%) were called active. The inconclusive results got no clear call from the source; some entries with a clear call stand among them for comparison. Calls follow the shape of the full dose curve; tested in HEK293 cells. Where the call is inconclusive, the potency comes from a doubtful curve fit.
% is scaled to controls: 0 for no effect and ±100 for the full control effect; potency is read from the fitted curve at half-maximal effect.

Test: qHTS for Inhibitors of binding or entry into cells for Lassa Virus; also: nearly all actives have a fitted effect of over 50% in size
Details: Lassa virus pseudotype entry inhibition, cell reporter; activity change, negative = inhibition: at 37.9 µM (top of the series) unless noted
In the case of CCCC(CC)Sc1nc2c([nH]1)c(=S)n(C)c(=O)n2C (stereo not drawn), the Potency is reported as inconclusive: 35.5 µM [inhibitor, single point].
With S=C1NCC(c2ccccc2)S1 (stereo not drawn) the Potency was inconclusive: 5.62 µM [inhibitor, single point].
In the case of Cc1ccc(OCCOCCn2ccnc2)c(Br)c1, the “activity change, negative = inhibition” value is reported as inactive: 21.5%.
For CC(C)CC(=O)Nc1ncc([N+](=O)[O-])s1, the “activity change, negative = inhibition” value was inactive: 14.8% [at 46.1 µM].
With CCOc1ccc(NC(=O)CC2C(=O)N(c3cccc(OC)c3)C(=O)N2C2CCCCC2)cc1 (stereo not drawn) the Potency was inconclusive: 2.24 µM [inhibitor, partial curve, poor fit].
With c1ccc(C(c2nnnn2C2CCCC2)N2CCN(c3nc4ccccc4s3)CC2)cc1 (stereo not drawn) the Potency was inconclusive: 1.26 µM [activator, single point].
With C[C@H]1CC[C@H]2C(=O)O[C@H](CO)CN2[C@H]1c1ccc(Br)cc1 the Potency was inconclusive: 1.19 µM [inhibitor, single point].
With CC(NC(=O)C1CCN(S(=O)(=O)c2ccc(Br)s2)CC1)c1ccccc1 (stereo not drawn) the “activity change, negative = inhibition” value was inactive: -26.4% [at 46.1 µM].
In the case of C=CCC1CCC/C(=N\NS(=O)(=O)c2ccc(C)cc2)C1 (stereo not drawn), the Potency is reported as inconclusive: 1.12 µM [activator, full curve, poor fit].
For CC1(C)Cc2c(sc(NC(=O)c3ccc4ncsc4c3)c2C(N)=O)C(C)(C)N1, the Potency was inconclusive: 35.5 µM [inhibitor, single point].
With CCOC(=O)CSC1=NC(=O)/C(=C\c2ccc(OC(C)=O)cc2)S1 the Potency was inconclusive: 29.1 µM [inhibitor, single point].
In the case of O=C1C2CC=CCC2C(=O)N1c1ccc(Cc2ccncc2)cc1 (stereo not drawn), the Potency is reported as inconclusive: 2.06 µM [inhibitor, partial curve, poor fit].
In the case of CCOc1cc(CNC(=O)c2ccc(NC(=O)c3nsc4ccccc34)cc2)ccc1OC, the “activity change, negative = inhibition” value is reported as inactive: 27.6% [at 46.1 µM].
For CC(C)(C)c1ccc(NC(=O)COC(=O)C2=COCCO2)cc1, the “activity change, negative = inhibition” value was inactive: 23%.
In the case of Cc1cc(NC(=O)Nc2cc(Cl)sc2Cl)no1, the “activity change, negative = inhibition” value is reported as inactive: 9.24%.
For CCCCn1c(N)c(N(CC(C)C)C(=O)CSc2ccc([N+](=O)[O-])cc2)c(=O)[nH]c1=O, the Potency was inconclusive: 0.355 µM [activator, full curve, poor fit].
For Cc1cccc2cc(CN(Cc3ccco3)C(=O)NC3CCCCC3)c(=O)[nH]c12, the Potency was inconclusive: 11.6 µM [inhibitor, partial curve].
For COc1cccc(CNC(=O)Nc2cc(C(=O)NCc3cccc(F)c3)ccc2N2CCCC2)c1, the Potency was inconclusive: 10 µM [inhibitor, partial curve, poor fit].
For COc1ccccc1-c1nn(Cc2ccccc2)cc1C(=O)N1CCN(c2ncccn2)CC1, the Potency was inconclusive: 12.6 µM [inhibitor, partial curve, poor fit].
With CCOC(=O)N1CCC(NC(=O)c2oc3c(C)c(C)ccc3c2C)CC1 the Potency was inconclusive: 11.2 µM [inhibitor, single point].
For CCC(Oc1ccc(F)cc1)C(=O)Nc1cc(-c2ccc(C)cc2)no1 (stereo not drawn), the “activity change, negative = inhibition” value was inactive: 3.69% [at 46.1 µM].
With Cc1cccc(N(C(=O)CCC(=O)Nc2cccnc2)C(C(=O)NC2CCCC2)c2ccncc2)c1 (stereo not drawn) the “activity change, negative = inhibition” value was inactive: 19.4%.
For CCCCCCN1C[C@H](n2cc(C3CC3)nn2)[C@@H](O)C[C@H]1c1ccccc1, the Potency was inconclusive: 35.3 µM [inhibitor, single point].
For O=C(/C=C/c1ccc(F)cc1)NC(=S)Nc1ccccc1C(=O)NC1CCCCC1, the Potency was inconclusive: 35.5 µM [inhibitor, single point].
With COc1ccc(NS(=O)(=O)c2cc(NC(=O)CC3CCCC3)ccc2N2CCOCC2)cc1 the Potency was inconclusive: 7.94 µM [inhibitor, partial curve, poor fit].
In the case of CCOC(=O)c1sc(NC(=O)CCCn2nc([N+](=O)[O-])c(Cl)c2C)c(C(=O)OCC)c1C, the “activity change, negative = inhibition” value is reported as inactive: -12.3%.
For COc1cc(C)c(Cl)cc1S(=O)(=O)N(C)C, the “activity change, negative = inhibition” value was inactive: 0.266%.
In the case of Cc1ccc(-c2csc3nc(SCC(=O)N(C)C)n(Cc4ccccc4)c(=O)c23)cc1, the Potency is reported as inconclusive: 14.1 µM [inhibitor, partial curve, poor fit].
For NC(=O)COc1ccccc1C(=O)O, the Potency was inconclusive: 0.631 µM [activator, partial curve, poor fit].
With CCOC(=O)CCNC(=O)N1CCC(CCC(=O)NCc2ccc(F)cc2)CC1 the Potency was inconclusive: 7.08 µM [inhibitor, partial curve, poor fit].
With O=S(=O)(Nc1cccc(-c2ccc(N3CCOCC3)nn2)c1)c1ccc(Cl)c(Cl)c1 the Potency was inconclusive: 7.08 µM [inhibitor, partial curve, poor fit].
With NC(=O)c1ccsc1NC(=O)COC(=O)c1nc(Cl)ccc1Cl the “activity change, negative = inhibition” value was inactive: 1.79%.
For Cc1cccc(C=NOCCc2ccccc2)n1, the “activity change, negative = inhibition” value was inactive: -4.88%.
With COCc1cc(=O)[nH]c(Nc2nc3ccc(C)cc3o2)n1 the Potency was inconclusive: 15.8 µM [inhibitor, single point].
For Cc1cc(C)n2nc(-c3ccccc3)cc2n1, the Potency was inconclusive: 0.891 µM [activator, full curve, poor fit].
With CCc1nnc(NC(=O)c2nc(S(=O)(=O)Cc3ccccc3)ncc2Cl)s1 the Potency was inconclusive: 28.2 µM [inhibitor, single point].
With CCOC(=O)c1oc2ccccc2c1COC(=O)CNC(=O)c1ccco1 the “activity change, negative = inhibition” value was inactive: 9.91%.
With CN1c2ccsc2C(O)=C(C(=S)Nc2ccc(F)c(Cl)c2)S1(=O)=O the Potency was inconclusive: 0.259 µM [inhibitor, single point].
For CSc1ccc(S(=O)(=O)NCC(=O)OCC(=O)N(C)Cc2ccccc2)cc1[N+](=O)[O-], the Potency was inconclusive: 0.126 µM [activator, full curve, poor fit].
With Cc1cccc(Nc2ccccc2C(=O)OCC(=O)N2CCOCC2)c1C the Potency was inconclusive: 23.1 µM [inhibitor, single point].
With CCCCCCCOC(=O)C[N+](C)(C)CCOC1CC2CCC1(C)C2(C)C (stereo not drawn) the Potency was inconclusive: 35.5 µM [inhibitor, single point].
In the case of O=C(Nc1ccccc1)OCCOc1ccc(Cl)cc1Cl, the Potency is reported as inconclusive: 4.47 µM [inhibitor, partial curve].
For COc1cccc(C(=O)C2=NN(C(C)=O)CC2c2ccco2)c1 (stereo not drawn), the Potency was inconclusive: 7.08 µM [inhibitor, partial curve].
